# The supplement of paper PMC8728848
# The other results are listed elsewhere or left out.
# B1: AcfC (Vibrio cholerae), Q57410 (protein)
# chain: MKSKNRFLLISLLSFSTSVFADVNLYGPGGPHVPLIKVAESFEKSQSKRVNITFGPQATWNDKAKKNADILFGASEHSALAIAEGHSERFSKFNIHPVFMREAIILVKKGNPKNIKGMADLLKPGIGIVVNDGAGVSNTSGTAVWEDSVGRMKNVEKLQAFRSNIHVFAPNSGSARKAFVDGEDIDAWITWVDWAIANPTIGDMVRMEDEYRIYRDFNVVLAKNPSSEAIDFFDYLTKSKDAEAIFQHYGWFK
# Experiments:
# Experiment in all cases: glycan array binding signal (z-score within array); higher = stronger binding
# Settings in all cases: glycan notation: IUPAC condensed, linker removed
# Gal(a1-3)Gal(b1-3)GlcNAc = target: Gal(a1-3)Gal(b1-3)GlcNAc
# Outline: (§1)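 Glycan array data came from 3228 arrays in the Consortium for Functional Glycomics database, and only arrays with an available protein sequence were kept. Glycan names were put into IUPAC-condensed notation, and columns mapping to the same glycan were averaged. The binding signal is a within-array Z-score, averaged across arrays of one protein sequence run at different concentrations or buffers and across linkers. A negative Z-score can be read as non-binding.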
# [1] = target: Gal(a1-3)Gal(b1-3)GlcNAc(b1-2)Man(a1-3)[Gal(a1-3)Gal(b1-3)GlcNAc(b1-2)Man(a1-6)]Man(b1-4)GlcNAc(b1-4)GlcNAc
# Outline: as §1
# [2] = target: Gal(a1-3)Gal(b1-3)[Fuc(a1-4)]GlcNAc(b1-2)Man(a1-3)[Gal(a1-3)Gal(b1-3)[Fuc(a1-4)]GlcNAc(b1-2)Man(a1-6)]Man(b1-4)GlcNAc(b1-4)GlcNAc
# Outline: as §1
# Gal(a1-3)Gal(b1-4)Glc = target: Gal(a1-3)Gal(b1-4)Glc
# Outline: as §1
# Gal(a1-3)Gal(b1-4)GlcNAc = target: Gal(a1-3)Gal(b1-4)GlcNAc
# Outline: as §1
# [3] = target: Gal(a1-3)Gal(b1-4)GlcNAc(b1-3)GalNAc
# Outline: as §1
# [4] = target: Gal(a1-3)Gal(b1-4)[Fuc(a1-3)]GlcNAc
# Outline: as §1
# [5] = target: Gal(a1-3)Gal(b1-4)[Fuc(a1-3)]GlcNAc(b1-2)Man(a1-3)[Gal(a1-3)Gal(b1-4)[Fuc(a1-3)]GlcNAc(b1-2)Man(a1-6)]Man(b1-4)GlcNAc(b1-4)GlcNAc
# Outline: as §1
# Gal(a1-3)GalNAc = target: Gal(a1-3)GalNAc
# Outline: as §1
# [6] = target: Gal(a1-3)[Gal(a1-4)]Gal(b1-4)GlcNAc
# Outline: as §1
# [7] = target: Gal(a1-4)Gal(b1-3)GlcNAc(b1-2)Man(a1-3)[Gal(a1-4)Gal(b1-3)GlcNAc(b1-2)Man(a1-6)]Man(b1-4)GlcNAc(b1-4)GlcNAc
# Outline: as §1
# Gal(a1-4)Gal(b1-4)Glc = target: Gal(a1-4)Gal(b1-4)Glc
# Outline: as §1
# Gal(a1-4)Gal(b1-4)GlcNAc = target: Gal(a1-4)Gal(b1-4)GlcNAc
# Outline: as §1
# [8] = target: Gal(a1-4)Gal(b1-4)GlcNAc(b1-2)Man(a1-3)[Gal(a1-4)Gal(b1-4)GlcNAc(b1-2)Man(a1-6)]Man(b1-4)GlcNAc(b1-4)GlcNAc
# Outline: as §1
# [9] = target: Gal(a1-4)Gal(b1-4)GlcNAc(b1-3)Gal(b1-4)Glc
# Outline: as §1
# Gal(a1-4)GlcNAc = target: Gal(a1-4)GlcNAc
# Outline: as §1
# Gal(a1-6)Glc = target: Gal(a1-6)Glc
# Outline: as §1
# Gal(b1-2)Gal = target: Gal(b1-2)Gal
# Outline: as §1
# Gal(b1-3)Gal = target: Gal(b1-3)Gal
# Outline: as §1
# Gal(b1-3)Gal(b1-4)GlcNAc = target: Gal(b1-3)Gal(b1-4)GlcNAc
# Outline: as §1
# [10] = target: Gal(b1-3)Gal(b1-4)GlcNAc(b1-2)Man(a1-3)[Gal(b1-3)Gal(b1-4)GlcNAc(b1-2)Man(a1-6)]Man(b1-4)GlcNAc(b1-4)GlcNAc
# Outline: as §1
# Gal(b1-3)GalNAc = target: Gal(b1-3)GalNAc
# Outline: as §1
# [11] = target: Gal(b1-3)GalNAc(a1-3)[Fuc(a1-2)]Gal(b1-4)Glc
# Outline: as §1
# [12] = target: Gal(b1-3)GalNAc(a1-3)[Fuc(a1-2)]Gal(b1-4)GlcNAc
# Outline: as §1
# [13] = target: Gal(b1-3)GalNAc(b1-3)Gal(a1-4)Gal(b1-4)Glc
# Outline: as §1
# [14] = target: Gal(b1-3)GalNAc(b1-4)Gal(b1-4)Glc
# Outline: as §1
# [15] = target: Gal(b1-3)GalNAc(b1-4)[Neu5Ac(a2-3)]Gal(b1-4)Glc
# Outline: as §1
# Gal(b1-3)GlcNAc = target: Gal(b1-3)GlcNAc
# Outline: as §1
# [16] = target: Gal(b1-3)GlcNAc(a1-6)Gal(b1-4)GlcNAc
# Outline: as §1
# [17] = target: Gal(b1-3)GlcNAc(b1-2)Man(a1-3)[Gal(b1-3)GlcNAc(b1-2)Man(a1-6)]Man(b1-4)GlcNAc(b1-4)GlcNAc
# Outline: as §1
# [18] = target: Gal(b1-3)GlcNAc(b1-2)Man(a1-3)[Gal(b1-3)GlcNAc(b1-2)Man(a1-6)]Man(b1-4)GlcNAc(b1-4)[Fuc(a1-6)]GlcNAc
# Outline: as §1
# [19] = target: Gal(b1-3)GlcNAc(b1-3)Gal(b1-3)GlcNAc
# Outline: as §1
# [20] = target: Gal(b1-3)GlcNAc(b1-3)Gal(b1-4)Glc
# Outline: as §1
# [21] = target: Gal(b1-3)GlcNAc(b1-3)Gal(b1-4)GlcNAc
# Outline: as §1
# [22] = target: Gal(b1-3)GlcNAc(b1-3)Gal(b1-4)GlcNAc(b1-6)[Gal(b1-3)GlcNAc(b1-3)]Gal(b1-4)Glc
# Outline: as §1
# [23] = target: Gal(b1-3)GlcNAc(b1-3)Gal(b1-4)[Fuc(a1-3)]GlcNAc(b1-6)[Gal(b1-3)GlcNAc(b1-3)]Gal(b1-4)Glc
# Outline: as §1
# [24] = target: Gal(b1-3)GlcNAc(b1-3)GalNAc
# Outline: as §1
# [25] = target: Gal(b1-3)GlcNAc(b1-6)Gal(b1-4)GlcNAc
# Outline: as §1
binder,measurement,setting,value
B1,glycan array binding signal (z-score),Gal(a1-3)Gal(b1-3)GlcNAc,-0.639
same,glycan array binding signal (z-score),[1],-0.58
same,glycan array binding signal (z-score),[2],4.58
same,glycan array binding signal (z-score),Gal(a1-3)Gal(b1-4)Glc,-0.864
same,glycan array binding signal (z-score),Gal(a1-3)Gal(b1-4)GlcNAc,0.091
same,glycan array binding signal (z-score),[3],-0.809
same,glycan array binding signal (z-score),[4],-0.828
same,glycan array binding signal (z-score),[5],1.24
same,glycan array binding signal (z-score),Gal(a1-3)GalNAc,0.153
same,glycan array binding signal (z-score),[6],-0.149
same,glycan array binding signal (z-score),[7],0.864
same,glycan array binding signal (z-score),Gal(a1-4)Gal(b1-4)Glc,-0.134
same,glycan array binding signal (z-score),Gal(a1-4)Gal(b1-4)GlcNAc,0.091
same,glycan array binding signal (z-score),[8],0.985
same,glycan array binding signal (z-score),[9],1.49
same,glycan array binding signal (z-score),Gal(a1-4)GlcNAc,0.322
same,glycan array binding signal (z-score),Gal(a1-6)Glc,-0.861
same,glycan array binding signal (z-score),Gal(b1-2)Gal,-0.23
same,glycan array binding signal (z-score),Gal(b1-3)Gal,-0.901
same,glycan array binding signal (z-score),Gal(b1-3)Gal(b1-4)GlcNAc,-0.245
same,glycan array binding signal (z-score),[10],0.281
same,glycan array binding signal (z-score),Gal(b1-3)GalNAc,0.199
same,glycan array binding signal (z-score),[11],0.135
same,glycan array binding signal (z-score),[12],-0.422
same,glycan array binding signal (z-score),[13],-0.791
same,glycan array binding signal (z-score),[14],0.777
same,glycan array binding signal (z-score),[15],-1.36
same,glycan array binding signal (z-score),Gal(b1-3)GlcNAc,0.247
same,glycan array binding signal (z-score),[16],-0.401
same,glycan array binding signal (z-score),[17],0.469
same,glycan array binding signal (z-score),[18],0.321
same,glycan array binding signal (z-score),[19],-0.219
same,glycan array binding signal (z-score),[20],-0.019
same,glycan array binding signal (z-score),[21],-0.979
same,glycan array binding signal (z-score),[22],-1.14
same,glycan array binding signal (z-score),[23],0.419
same,glycan array binding signal (z-score),[24],0.918
same,glycan array binding signal (z-score),[25],-0.955

# 2 neighbouring records from above:
binder,measurement,setting,value
B1,glycan array binding signal (z-score),Gal(a1-4)GlcNAc,0.322
same,glycan array binding signal (z-score),Gal(a1-6)Glc,-0.861
